Results deposited as PubChem BioAssay AID1224830 (NIAID, 2016)

Purpose: 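Genes whose knock-down alters the TNF-alpha reporter response to LPS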 (primary screen)
Cell system: human THP-1 monocytic leukaemia cells, TNF dual-luciferase reporter clone, PMA-differentiated to macrophage-like cells
Reagents: siRNA pool against human genes, 50 nM
Time to read-out: LPS for 4 h, given about 3 days after siRNA transfection
Conditions: bacterial LPS (TLR4 ligand), 10 ng/ml
Measured: 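TNF firefly reporter luminescence divided by renilla, normalised to the plate median, then turned into a robust z-score for each replicate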
Reading the numbers: TNF reporter robust z-score: higher = stronger TNF reporter response to LPS
Hit rule: 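a well is active when its z-score exceeds 2.8 or falls below -1.5; control wells carry no call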
Here is a random part of about 18,000 deposited reagents. About 2,900 of them (16%) were called active. 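Calls are made per well; low scores hint the gene aids the LPS response, high scores that it dampens it.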 Repeated entries: four replicate wells of each siRNA pool. Reagent sequences are not shown.

How did the screen score ITPRIP?
TNF reporter robust z-score: 1.42; Call: inactive

How did the screen score ITPRIP?
TNF reporter robust z-score: 1.78; Call: inactive

What is on record for ITPRIP?
TNF reporter robust z-score: 2.04; Call: inactive

For ITPRIP, what does the deposit list?
TNF reporter robust z-score: 0.75; Call: inactive

With LCP1, how do the results read?
TNF reporter robust z-score: 0.21; Call: inactive

How did the screen score LCP1?
TNF reporter robust z-score: 2.17; Call: inactive

With LCP1, what was measured?
TNF reporter robust z-score: 3.22; Call: active

For LCP1, what does the deposit list?
TNF reporter robust z-score: 2.62; Call: inactive

For ELOVL5, what does the deposit list?
TNF reporter robust z-score: 0.86; Call: inactive

For ELOVL5, what was measured?
TNF reporter robust z-score: 1.26; Call: inactive

What is on record for ELOVL5?
TNF reporter robust z-score: 1.2; Call: inactive

What did the screen give for ELOVL5?
TNF reporter robust z-score: 0.24; Call: inactive

Laid out differently: entries from further up.
gene | TNF reporter robust z-score | Call
ELOVL5 | 0.86 | inactive
ELOVL5 | 1.26 | inactive

The list goes on.
For ENDOV, how do the results read?
TNF reporter robust z-score: 4.21; Call: active

For ENDOV, how do the results read?
TNF reporter robust z-score: 2.4; Call: inactive

How did the screen score ENDOV?
TNF reporter robust z-score: 3.96; Call: active

With ENDOV, how do the results read?
TNF reporter robust z-score: 4.33; Call: active

With PHLDB1, how do the results read?
TNF reporter robust z-score: 0.1; Call: inactive

What did the screen give for PHLDB1?
TNF reporter robust z-score: 0.79; Call: inactive

What is on record for PHLDB1?
TNF reporter robust z-score: -0.77; Call: inactive

What is on record for PHLDB1?
TNF reporter robust z-score: -0.09; Call: inactive
